Primary screen of a compound library

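Assay of Toxoplasma gondii numbers, read through their beta-galactosidase reporter with a colour substrate. Tested at 50 µM. The record gives no direction; the compounds picked for IC50 retests had high values, so higher reads as fewer parasites. About 18,000 compounds were tested under these conditions; 0.94% (about 170) showed 50% or more at least once.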

Values are the deposited “Percent Effect”, in %. The record does not define 0% and 100%; most values in the screen are far below 50% and negative numbers occur (in some assays of this library far below -100). Compounds were drawn at random from those tested, without regard to their results.

structure | percent effect
CN1CCN(C(=O)CC#N)CC1 | 13.9
COCCNCC(=O)Nc1cccc(CSC)c1 | -14.3
Cc1ccc(NC(=O)Cn2ncn(C)c2=O)c(C)c1 | 14.56
CCc1[nH][nH]c(=O)c1CCN | 35.65
Cc1ccc(C(=O)NC2CCN(C(C)C)CC2)o1 | -16.97
COC1Cc2ccccc2N(C(=O)c2cnn(C)c2)C1 (stereo not drawn) | 34.6
CCc1nnc(SCC(=O)Nc2cc(C)nn2C)[nH]1 | 0.6107
CC[C@H](N)C(=O)N(C)CCOc1cccc(Cl)c1 | 33.07
Cc1cccc2nc(C(=O)NCCOCCO)c(F)n12 | 15.84
COCCC1(CO)CCCN(CCN2CCCC2=O)C1 (stereo not drawn) | -12.25
O=C(CN1CCOCC1)c1cccc(Cl)c1 | -5.987
Cc1ccc(NC(=O)NC2CCCS(=O)(=O)C2)s1 (stereo not drawn) | 4.204
CN(Cc1ccccn1)Cc1csnn1 | 13.21
CC1COCCN1C(=O)NCc1nnc2ccccn12 (stereo not drawn) | -7.294
CNCC(=O)Nc1cc(C)ccn1 | -3.505
CNC(=O)C1CC(=O)N(C2CCCCC2)C1 (stereo not drawn) | 24.15
O=C(NCC1(O)CCCNC1)c1ccc(F)c(O)c1 (stereo not drawn) | 1.393
Nc1nc(SCCO)n[nH]1 | 0.494
Cc1cnn(CC(=O)NCCN(C)C2CC2)c1 | -0.6037
CC(CNc1cccc(F)c1C#N)S(N)(=O)=O (stereo not drawn) | 0.2327
Cc1cc(N2CCNC(=O)C2)ccc1CN | 16.38
CN1CCC(=O)CC1c1ccc(Br)cc1 (stereo not drawn) | -2.11
CO[C@H]1CNCC1NC(=O)c1coc2ccccc12 (stereo partly drawn) | -4.468
CCN(CCn1cccn1)C(=O)c1cc(C)n[nH]1 | 7.445
CN(C)C(CN)C1CC1 (stereo not drawn) | -0.05841
N#Cc1ccc(NCc2ccccc2F)nc1 | -2.871
COc1cccnc1NCc1cc(C(N)=O)cs1 | -1.516
Nc1ccc(N2CCNC(=O)C2)cn1 | -12.37
CNC(=O)C1CC(=O)N(c2cccc(Cl)c2)C1 (stereo not drawn) | -13.23
CC(C)n1c(N)nnc1SCc1cccnc1 | 29.3
CN(C)CCNC(=O)c1cc(Br)cs1 | -0.5402
CCN(CC)C(=O)CN(C)C(=O)Cc1cccc(F)c1 | 1.744
CN1CCC(NC(=O)C2CCC2)CC1 | -13.04
COc1ccc([C@H]2C[C@H](N)C2)cc1F | -1.749
CCNc1nnc(SCc2csc(CS(C)(=O)=O)n2)s1 | -1.248
CCC(NC(=O)CCn1cccn1)c1ccccc1O (stereo not drawn) | -9.002
CC(C)c1cccc(S(=O)(=O)NCCN)c1 | 4.165
Cn1cc(C(C)(O)CNc2ncccc2C#N)cn1 (stereo not drawn) | 3.624
Cc1cc(F)ccc1C(=O)Nc1cccc(CO)n1 | -4.723
CN1C(=O)c2ccc(C(=O)Nc3nccs3)cc2C1=O | -2.574
NCCCn1cccnc1=O | -5.158
CCc1ccccc1OCCN(C)CC(O)CO (stereo not drawn) | 14.4
CC(C)(C)OC(=O)N1CCOCC1 | 3.242
CC(=O)c1c(C)cc(C)nc1C | -2.732
O=C(C1CCCN1c1ccncc1Cl)N1CCSCC1 (stereo not drawn) | -3.725
CSc1cc(CN)ccn1 | 1.855
NCc1cccc(C(N)=O)c1 | 1.087
CC(c1ccccn1)N(C)c1ncccc1C#N (stereo not drawn) | 12.35
O=C(NC1CCCCC1)c1ccc(CO)cc1 | -0.03985
CC(C(N)=O)N(C)CCCOc1ccccc1 (stereo not drawn) | 9.989
CCCc1noc(CN2CCN(CC(O)CC)CC2)n1 (stereo not drawn) | -1.624
CC(C)c1cc(C(=O)N2CC[C@H]3CC[C@@H](C2)N3)no1 | -0.4525
CCNC(=O)CN1CCN(Cc2cccnc2N)CC1 | 3.908

For reference, 4 entries once more:

{"structure": "CC(=O)c1c(C)cc(C)nc1C", "percent effect": -2.732}
{"structure": "CCN(CCn1cccn1)C(=O)c1cc(C)n[nH]1", "percent effect": 7.445}
{"structure": "Cc1ccc(NC(=O)Cn2ncn(C)c2=O)c(C)c1", "percent effect": 14.56}
{"structure": "CC(C)c1cccc(S(=O)(=O)NCCN)c1", "percent effect": 4.165}

The values are deposited in ChEMBL (CHEMBL3988442, “University of Dundee, Small-Polar-MMV Screening Library” (2021)).